Results deposited as PubChem BioAssay AID1259405 (NCATS, 2018).

Aim: 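Knock-downs that lift recombinant protein yield in hamster ovary cells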 (primary screen)
System: Chinese hamster CHO-K1 ovary cells with stable secreted eGFP expression
Reagent: single siRNA against mouse genes, 0.8 pmol siRNA per well (2 µl of 400 nM stock)
Timing: 3 days
Read-out: 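Percent of the per-plate non-targeting control median for intracellular GFP per well by laser scanning cytometry and for cell viability by ATP luminescence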
Scale: GFP, % of control: higher = more GFP per well, higher productivity; viability (ATP), % of control: higher = more viable cells (more ATP)
Rule for the call: 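a knock-down is called active if GFP reaches 120% or more of non-targeting control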
This is a random part of about 50,000 reagents. In the full data, about 4,000 (8%) were called active. 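Mouse siRNA library applied to hamster cells; one well for each siRNA.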 Reagents against one gene are numbered here.

Target gene | reagent no. | GFP, % of control | viability (ATP), % of control | outcome
Tmem266 (GeneID 244886) | 1 | 76.4 | 80.4 | inactive
Tmem266 (GeneID 244886) | 2 | 79.1 | 104 | inactive
Tmem266 (GeneID 244886) | 3 | 70.5 | 71.8 | inactive
Gnpda1 (GeneID 26384) | 1 | 95.6 | 94.3 | inactive
Gnpda1 (GeneID 26384) | 2 | 108 | 74 | inactive
Gnpda1 (GeneID 26384) | 3 | 18.7 | 103 | inactive
Psmd14 (GeneID 59029) | 1 | 193 | 97.8 | active
Psmd14 (GeneID 59029) | 2 | 97.5 | 58.1 | inactive
Nudc (GeneID 18221) | 1 | 134 | 84.6 | active
Nudc (GeneID 18221) | 2 | 72.1 | 73.2 | inactive
Nudc (GeneID 18221) | 3 | 92.9 | 52.9 | inactive
Nup35 (GeneID 69482) | 1 | 103 | 81.7 | inactive
Nup35 (GeneID 69482) | 2 | 78.7 | 50.5 | inactive
Nup35 (GeneID 69482) | 3 | 67.5 | 40.4 | inactive
Msrb2 (GeneID 76467) | 1 | 135 | 105 | active
Msrb2 (GeneID 76467) | 2 | 78.6 | 103 | inactive
Msrb2 (GeneID 76467) | 3 | 89.1 | 61.9 | inactive
Phyhd1 (GeneID 227696) | 1 | 78 | 66.8 | inactive
Phyhd1 (GeneID 227696) | 2 | 56.8 | 75.4 | inactive
Phyhd1 (GeneID 227696) | 3 | 58.4 | 74.8 | inactive
Chic1 (GeneID 12212) | 1 | 73.5 | 76.1 | inactive
Chic1 (GeneID 12212) | 2 | 65.1 | 92 | inactive
Chic1 (GeneID 12212) | 3 | 75.8 | 72.8 | inactive
Tmem38a (GeneID 74166) | 1 | 77.2 | 59 | inactive
Tmem38a (GeneID 74166) | 2 | 82.7 | 71.1 | inactive
Tmem38a (GeneID 74166) | 3 | 116 | 68.4 | inactive
Ccdc43 (GeneID 52715) | 1 | 72.3 | 88.5 | inactive
Ccdc43 (GeneID 52715) | 2 | 69.5 | 77.4 | inactive
Ccdc43 (GeneID 52715) | 3 | 134 | 123 | active
2010003K11Rik (GeneID 69861) | 1 | 81.6 | 87.8 | inactive
2010003K11Rik (GeneID 69861) | 2 | 75.7 | 99 | inactive
2010003K11Rik (GeneID 69861) | 3 | 53 | 72.4 | inactive
Palmd (GeneID 114301) | 1 | 63.8 | 63.9 | inactive
Palmd (GeneID 114301) | 2 | 81.2 | 71.1 | inactive
Palmd (GeneID 114301) | 3 | 82.8 | 101 | inactive
A430057M04Rik (GeneID 319486) | 1 | 56.5 | 62.2 | inactive
A430057M04Rik (GeneID 319486) | 2 | 99.6 | 80.4 | inactive
A430057M04Rik (GeneID 319486) | 3 | 70.7 | 92.6 | inactive
Bnip3l (GeneID 12177) | 1 | 57.6 | 60.3 | inactive
Bnip3l (GeneID 12177) | 2 | 81.8 | 69.9 | inactive
Bnip3l (GeneID 12177) | 3 | 168 | 143 | active
Bnip3l (GeneID 12177) | 4 | 102 | 78.3 | inactive
Bnip3l (GeneID 12177) | 5 | 97.5 | 84.1 | inactive
Bnip3l (GeneID 12177) | 6 | 125 | 110 | active
Fam110b (GeneID 242297) | 1 | 82.8 | 89.7 | inactive
Fam110b (GeneID 242297) | 2 | 66.3 | 56.2 | inactive
Fam110b (GeneID 242297) | 3 | 58 | 50.3 | inactive
Or4p8 (GeneID 258774) | 1 | 84.7 | 60 | inactive
Or4p8 (GeneID 258774) | 2 | 41.4 | 88.7 | inactive
Or4p8 (GeneID 258774) | 3 | 40.7 | 92.3 | inactive
Abraxas1 (GeneID 70681) | 1 | 82.1 | 55.9 | inactive
Abraxas1 (GeneID 70681) | 2 | 57.1 | 38 | inactive
Abraxas1 (GeneID 70681) | 3 | 92.3 | 114 | inactive

5 of these entries, reformatted.
{"Target gene":"Nup35 (GeneID 69482)","reagent no.":3,"GFP, % of control":67.5,"viability (ATP), % of control":40.4,"outcome":"inactive"}
{"Target gene":"Msrb2 (GeneID 76467)","reagent no.":1,"GFP, % of control":135,"viability (ATP), % of control":105,"outcome":"active"}
{"Target gene":"Msrb2 (GeneID 76467)","reagent no.":2,"GFP, % of control":78.6,"viability (ATP), % of control":103,"outcome":"inactive"}
{"Target gene":"Msrb2 (GeneID 76467)","reagent no.":3,"GFP, % of control":89.1,"viability (ATP), % of control":61.9,"outcome":"inactive"}
{"Target gene":"Phyhd1 (GeneID 227696)","reagent no.":1,"GFP, % of control":78,"viability (ATP), % of control":66.8,"outcome":"inactive"}

Additional results:
Target gene | reagent no. | GFP, % of control | viability (ATP), % of control | outcome
Chchd10 (GeneID 103172) | 1 | 62.9 | 59.7 | inactive
Chchd10 (GeneID 103172) | 2 | 74.4 | 83.6 | inactive
Chchd10 (GeneID 103172) | 3 | 158 | 127 | active
Radx (GeneID 102871) | 1 | 82.7 | 67.3 | inactive
Radx (GeneID 102871) | 2 | 111 | 120 | inactive
Radx (GeneID 102871) | 3 | 26.7 | 16.6 | inactive
Zfp251 (GeneID 71591) | 1 | 42 | 63.6 | inactive
Zfp251 (GeneID 71591) | 2 | 61.5 | 76.6 | inactive
Zfp251 (GeneID 71591) | 3 | 42.8 | 72.3 | inactive
En1 (GeneID 13798) | 1 | 70.5 | 98.3 | inactive
En1 (GeneID 13798) | 2 | 109 | 83 | inactive
En1 (GeneID 13798) | 3 | 75.3 | 33.1 | inactive
Slc1a1 (GeneID 20510) | 1 | 127 | 69.5 | active
Slc1a1 (GeneID 20510) | 2 | 72 | 65.3 | inactive
Slc1a1 (GeneID 20510) | 3 | 81.8 | 93.2 | inactive
Gcc2 (GeneID 70297) | 1 | 81.3 | 65.5 | inactive
Gcc2 (GeneID 70297) | 2 | 56.8 | 54 | inactive
Gcc2 (GeneID 70297) | 3 | 116 | 85.9 | inactive
Or2w1 (GeneID 18341) | 1 | 70.3 | 51.9 | inactive
Or2w1 (GeneID 18341) | 2 | 122 | 55.3 | active
Or2w1 (GeneID 18341) | 3 | 74.4 | 85.4 | inactive
Cfap126 (GeneID 75472) | 1 | 80.9 | 84.7 | inactive
Cfap126 (GeneID 75472) | 2 | 59.5 | 59.3 | inactive
Cfap126 (GeneID 75472) | 3 | 87.2 | 47.4 | inactive
Zdhhc25 (GeneID 70073) | 1 | 52.6 | 54.2 | inactive
Zdhhc25 (GeneID 70073) | 2 | 60.5 | 34.1 | inactive
Zdhhc25 (GeneID 70073) | 3 | 23 | 68.6 | inactive
Tsfm (GeneID 66399) | 1 | 72.4 | 54.5 | inactive
Tsfm (GeneID 66399) | 2 | 68.1 | 77.8 | inactive
Tsfm (GeneID 66399) | 3 | 76.3 | 54.1 | inactive
Pcdha4 (GeneID 12936) | 1 | 45.9 | 40.3 | inactive
Pcdha4 (GeneID 12936) | 2 | 81 | 77.8 | inactive
Pcdha4 (GeneID 12936) | 3 | 89.5 | 61.3 | inactive
